Amino acid sequences for entries named in this document (tags omitted).
UniProt P22411, whole entry: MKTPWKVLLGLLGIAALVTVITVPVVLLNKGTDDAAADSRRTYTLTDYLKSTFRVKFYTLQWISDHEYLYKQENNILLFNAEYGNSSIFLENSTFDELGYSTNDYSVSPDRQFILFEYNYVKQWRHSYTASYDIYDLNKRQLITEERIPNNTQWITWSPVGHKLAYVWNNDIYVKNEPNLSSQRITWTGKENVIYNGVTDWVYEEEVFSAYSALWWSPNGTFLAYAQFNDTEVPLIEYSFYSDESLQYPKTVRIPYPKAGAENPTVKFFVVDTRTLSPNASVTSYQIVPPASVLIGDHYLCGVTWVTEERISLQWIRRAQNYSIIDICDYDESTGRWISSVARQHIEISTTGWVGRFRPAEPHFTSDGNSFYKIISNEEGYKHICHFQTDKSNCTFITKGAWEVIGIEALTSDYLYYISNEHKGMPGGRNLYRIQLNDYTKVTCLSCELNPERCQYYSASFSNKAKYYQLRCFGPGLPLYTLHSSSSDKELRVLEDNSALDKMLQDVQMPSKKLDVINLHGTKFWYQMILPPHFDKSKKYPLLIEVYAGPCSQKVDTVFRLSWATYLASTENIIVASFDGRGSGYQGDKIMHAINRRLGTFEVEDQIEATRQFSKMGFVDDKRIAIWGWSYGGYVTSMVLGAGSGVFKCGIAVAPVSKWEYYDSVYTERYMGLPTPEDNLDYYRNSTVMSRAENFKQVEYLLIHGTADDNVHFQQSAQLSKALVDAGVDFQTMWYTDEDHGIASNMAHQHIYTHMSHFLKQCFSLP

According to US7008957B2, “Bicyclic cyanoheterocycles, process for their preparation and their use as medicaments” (Sanofi-Aventis Deutschland GmbH, priority 2003, dated 2006):

Target: DPP-IV from porcine kidney (Sus scrofa, UniProt P22411)
Experiment: Measurement of the DPP-IV activity (fluorimetric H-Ala-Pro-AFC conversion)
Conditions: DPP-IV 1 mU/ml; substrate H-Ala-Pro-AFC 15 μM; Tris/HCl 40 mM, pH 7.4; room temperature; tested form: bis-TFA salt
Procedure: The activity of the compounds was assayed as follows:
Measurement of the DPP-IV activity:
DPP-IV from porcine kidney (Sigma, Munich)
H-Ala-Pro-AFC (Bachem, Weil am Rhein)
DPP-IV (1 mU/ml, final concentration)
H-Ala-Pro-AFC (15 μM, final concentration) in Tris/HCl (40 mM, pH 7.4), total volume 0.2 ml
The reaction was carried out at room temperature for various times (typically 10 min) and stopped at the end of the reaction by adding 20 μl of ZnCl2(1M). The H-Ala-Pro-AFC conversion was determined fluorimetrically by measuring the emission at 535 nm after excitation at 405 nm. When inhibitors were added, the added buffer volume was adapted so that a total volume of 200 μl was maintained for the assay mixture.
IC50 values for inhibitors were determined by varying the inhibitor concentrations with the stated substrate concentration of 15 μM. Ki and Km values were found by appropriate variation of substrate concentration and inhibitor concentration as described (Dixon, M. and Webb, E. C. (1979) Enzymes, third edition, pp. 47–206, Academic Press). The values for Km, IC50 and Ki were calculated using a commercially available software package (Leatherbarrow, R. J. (1992) GraFit Version 3.0, Erithacus Software Ltd. Staines, U.K.).

- IC50: 110 nM
Compound: N#C[C@@H]1CS[C@H]2C[C@](N)(CN3CCCCC3)C(=O)N12

The structures given here were assigned with low confidence; some may be wrong.
